Measured values taken from publication PMC12098869 (Nature Communications, 2025).
For some assays here: Plain letter strings leave the end groups untold. Where a SMILES comes first, the peptide text is derived from it. Bridges are numbered along the chain shown (N, C = ends).

Legend:
[1] = peptide synthesis; conditions: whole synthesis, thioether ring, sequence written open
[2] = general procedure: Fmoc solid-phase peptide synthesis; conditions: whole synthesis; for isolated yield: scale of the general procedure 50 µmol
[3] = test system: biotinylated ADO; experiment: RaPID mRNA display selection, enrichment by next-generation sequencing; set-up: species or system human; conditions: percentage enrichment in the final (sixth) selection round
[4] = thioether ring, sequence written open

Question: With YWTLNEGFPRRGRLC as the molecule, how does the isolated yield [1] read?
Answer: 12%

Question: With YRIIRVFRSWVLCPC as the molecule, how does the isolated yield [1] read?
Answer: 0.5%

Question: Which isolated mass [2] does the source give for CP6-L8d-Lys-Ser here?
Answer: 9.0 mg

Question: And the isolated yield [2]?
Answer: 7.1%

Question: With `CC[C@H](C)[C@@H]1NC(=O)[C@H](CCCNC(=N)N)NC(=O)[C@H](Cc2ccc(O)cc2)NC(=O)CSC[C@@H](C(=O)N2CCC[C@H]2C(=O)N[C@@H](CS)C(N)=O)NC(=O)[C@H](CC(C)C)NC(=O)[C@H](C(C)C)NC(=O)[C@H](Cc2c[nH]c3ccccc23)NC(=O)[C@H](CO)NC(=O)[C@H](CCCNC(=N)N)NC(=O)[C@H](Cc2ccccc2)NC(=O)[C@H](C(C)C)NC(=O)[C@H](CCCNC(=N)N)NC(=O)[C@H]([C@@H](C)CC)NC1=O` [CP2] ({CH2CO}-YRIIRVFRSWVLCPC-NH2; thioether N-13; N-terminus and C-terminus assumed) as the molecule, how does the “Enrichment (%)” value [3] read?
Answer: 4.3%

Question: For YTVSTTWLGTHRQC, which isolated yield [1] is on record?
Answer: 13%

Question: Which isolated yield [2, 4] does the source give for CP6-L8d-Phe-Ser here?
Answer: 6.7%

Question: And the isolated mass [2, 4]?
Answer: 8.2 mg

Question: With `CC(C)C[C@@H]1NC(=O)[C@H](CCCNC(=N)N)NC(=O)CNC(=O)[C@H](CCCNC(=N)N)NC(=O)[C@H](CCCNC(=N)N)NC(=O)[C@@H]2CCCN2C(=O)[C@H](Cc2ccccc2)NC(=O)CNC(=O)[C@H](CCC(=O)O)NC(=O)[C@H](CC(N)=O)NC(=O)[C@H](CC(C)C)NC(=O)[C@H]([C@@H](C)O)NC(=O)[C@H](Cc2c[nH]c3ccccc23)NC(=O)[C@H](Cc2ccc(O)cc2)NC(=O)CSC[C@@H](C(N)=O)NC1=O` [CP3] ({CH2CO}-YWTLNEGFPRRGRLC-NH2; thioether N-15; N-terminus and C-terminus assumed) as the molecule, how does the “Enrichment (%)” value [3] read?
Answer: 2.6%

Question: Which isolated yield [2, 4] does the source give for CP6-L8d-Gly-Ser here?
Answer: 4.3%

Question: And the isolated mass [2, 4]?
Answer: 5.0 mg
